What was measured:
[1] = Zinc fluorescence titration, quantum yield and apparent Kd in buffered solution; format: binding
[2] = Zinc-dependent MR relaxivity in buffered solutions; format: physicochemical; conditions: 25 mM Pipes buffer pH 7.0, 4.7 T
Method: MRI samples prepared as described above were arrayed into microtiter plates and placed in a 40-cm-bore Avance 4.7 T MRI scanner (Bruker, Billerica, Mass.). Unused wells were filled with PBS, and imaging was performed on a 2-mm slice through the sample. A spin echo pulse sequence with multiecho acquisition was used. The TR was fixed for every acquisition, and the TE was in defined increments. For example, for TR=100 ms, TE varied from 10 to 80 ms, with a 10-ms increment. To adjust further the weight between T1 and T2, various TRs were applied and the TE increment was changed accordingly, if necessary. Data matrices of 512×128 points were acquired and zero-filled to 256 points in the second (phase encoding) dimension. Images were reconstructed and analyzed by using custom routines running in Matlab (Mathworks, Natick, Mass.).
Insertion of a paramagnetic manganese(III) ion into the porphyrin core of compound 1 rendered the resulting (DPA-C2)2-TPPS3Mn(III) complex (compound 2) an MRI contrast agent. […] In some experiments, the repetition times (TRs) were varied so that both T1 and T2 could be evaluated. […]
The zinc-dependent MR relaxivity of compound 2 was first investigated in buffered solutions. […] The T1 values of zinc-free and zinc-saturated solutions were determined at various concentrations of compound 2, from which T1 relaxivity (R1) values could be deduced. […]

| Compound | quantum yield, absence of zinc ([1]; zinc-free, 5 mM solution of 1 in 50 mM Hepes buffer (pH 7.0), 100 mM KCl, TPPS4 as reference) | quantum yield of zinc-saturated form relative to zinc-free form ([1]; zinc-saturated vs zinc-free) | quantum yield, zinc-saturated form ([1]; zinc-saturated, 50 mM Hepes (pH 7.0), 100 mM KCl) | T1 relaxivity (R1), zinc-free form ([2]; zinc-free) | T1 relaxivity (R1), zinc complex ([2]; zinc-saturated) |
| --- | --- | --- | --- | --- | --- |
| O=S(=O)(O)c1ccc(-c2c3nc(c(-c4ccc(S(=O)(=O)O)cc4)c4ccc([nH]4)c(-c4c(NCCN(Cc5ccccn5)Cc5ccccn5)cccc4NCCN(Cc4ccccn4)Cc4ccccn4)c4nc(c(-c5ccc(S(=O)(=O)O)cc5)c5ccc2[nH]5)C=C4)C=C3)cc1 [compound 1, (DPA-C2)2-TPPS3] | 0.004 | > 10 times | 0.046 |  |  |
| (DPA-C2)2-Mn(III)TPPS3 [compound 2] |  |  |  | 8.7 mM⁻¹ s⁻¹ | 6.65 mM⁻¹ s⁻¹ |

Source: US8133474B2, “Sensors for fluorescence and magnetic resonance imaging” (Massachusetts Institute of Technology, priority 2006, dated 2012)
